Test results: PMC6915307
These are yes or no findings as the source states them, for the method shown. Binding seen in cells or lysates may run through a third protein. A result given as binding can be weak or reduced; the word gives no strength.

The chains behind the UniProt entries cited, without tags or fusion partners. Where a name states a change or a piece, a line headed by the entry shows the natural chain unless it says otherwise.
UniProt P18206: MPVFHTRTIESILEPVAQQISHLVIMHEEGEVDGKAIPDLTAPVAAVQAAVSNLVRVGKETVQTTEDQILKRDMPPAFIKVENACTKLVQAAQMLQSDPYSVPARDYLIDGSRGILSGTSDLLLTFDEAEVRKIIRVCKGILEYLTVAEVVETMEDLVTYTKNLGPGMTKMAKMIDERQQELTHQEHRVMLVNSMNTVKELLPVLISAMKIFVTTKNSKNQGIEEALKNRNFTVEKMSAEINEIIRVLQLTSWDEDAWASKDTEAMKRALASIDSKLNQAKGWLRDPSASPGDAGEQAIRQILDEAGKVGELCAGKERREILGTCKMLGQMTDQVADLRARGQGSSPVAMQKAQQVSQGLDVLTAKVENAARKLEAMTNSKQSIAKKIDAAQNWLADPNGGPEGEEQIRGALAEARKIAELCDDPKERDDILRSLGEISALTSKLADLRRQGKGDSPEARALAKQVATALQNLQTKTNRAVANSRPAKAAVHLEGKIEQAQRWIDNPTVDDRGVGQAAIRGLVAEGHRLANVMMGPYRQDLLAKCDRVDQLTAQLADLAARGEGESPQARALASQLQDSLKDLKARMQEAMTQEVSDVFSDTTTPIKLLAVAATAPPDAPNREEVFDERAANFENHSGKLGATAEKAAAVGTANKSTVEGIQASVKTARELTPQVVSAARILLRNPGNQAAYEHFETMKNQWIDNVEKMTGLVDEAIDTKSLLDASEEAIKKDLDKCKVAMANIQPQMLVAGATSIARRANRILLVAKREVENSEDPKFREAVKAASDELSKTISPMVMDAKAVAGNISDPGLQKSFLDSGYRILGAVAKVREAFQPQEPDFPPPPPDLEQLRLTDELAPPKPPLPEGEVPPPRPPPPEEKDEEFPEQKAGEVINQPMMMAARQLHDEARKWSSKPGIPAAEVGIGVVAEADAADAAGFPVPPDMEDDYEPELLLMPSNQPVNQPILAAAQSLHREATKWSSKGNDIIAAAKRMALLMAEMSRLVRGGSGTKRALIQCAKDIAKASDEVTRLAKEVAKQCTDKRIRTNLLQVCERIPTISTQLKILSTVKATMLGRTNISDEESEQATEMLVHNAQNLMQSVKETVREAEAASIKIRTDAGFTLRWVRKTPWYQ
UniProt O96013: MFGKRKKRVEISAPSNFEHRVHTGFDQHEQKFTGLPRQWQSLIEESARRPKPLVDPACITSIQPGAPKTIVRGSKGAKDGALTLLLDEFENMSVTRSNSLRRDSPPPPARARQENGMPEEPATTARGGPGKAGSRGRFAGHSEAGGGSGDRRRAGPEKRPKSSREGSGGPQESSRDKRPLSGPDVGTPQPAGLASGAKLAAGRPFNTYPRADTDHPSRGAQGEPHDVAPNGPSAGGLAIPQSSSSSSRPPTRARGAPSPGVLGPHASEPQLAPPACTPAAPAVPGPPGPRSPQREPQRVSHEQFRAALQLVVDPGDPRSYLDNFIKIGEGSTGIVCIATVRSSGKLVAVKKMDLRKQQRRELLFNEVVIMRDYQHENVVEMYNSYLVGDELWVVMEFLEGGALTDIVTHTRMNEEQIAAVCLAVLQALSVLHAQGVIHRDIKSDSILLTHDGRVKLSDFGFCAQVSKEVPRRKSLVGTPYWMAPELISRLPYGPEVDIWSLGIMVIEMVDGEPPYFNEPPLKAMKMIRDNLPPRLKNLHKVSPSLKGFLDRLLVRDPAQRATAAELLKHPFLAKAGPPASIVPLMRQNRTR

Legend:
[1] = target: vinculin (human (endogenous in THP-1)) (UniProt P18206); assay: co-IP; THP-1 cells stably expressing EGFP-PAK4, seeded on fibronectin with TGF-beta for 16 h; lysate (0.5% NP-40 lysis buffer) incubated with 1-2 ug anti-paxillin or anti-vinculin overnight at 4 C, protein A/G agarose; blots probed for PAK4 and reprobed for GFP
[2] = target: vinculin (human (endogenous in THP-1)) (UniProt P18206); assay: co-IP; endogenous PAK4 in immunoprecipitates when a large number of cells was used (Figure S4C)

Substance	binding [1]	binding [2]
EGFP-PAK4 (from UniProt O96013 1-591) (enzyme)	binds	
endogenous PAK4 (from UniProt O96013 1-591) (enzyme)		binds weakly
